Test results: publication PMC10688018
These are yes or no findings as the source states them, for the method shown. Binding seen in cells or lysates may run through a third protein. Some binding calls cover weakened binding; strength is not graded here.

Protein sequences, listed by entry. Tags and fused reporters are not part of them.
UniProt Q99J83: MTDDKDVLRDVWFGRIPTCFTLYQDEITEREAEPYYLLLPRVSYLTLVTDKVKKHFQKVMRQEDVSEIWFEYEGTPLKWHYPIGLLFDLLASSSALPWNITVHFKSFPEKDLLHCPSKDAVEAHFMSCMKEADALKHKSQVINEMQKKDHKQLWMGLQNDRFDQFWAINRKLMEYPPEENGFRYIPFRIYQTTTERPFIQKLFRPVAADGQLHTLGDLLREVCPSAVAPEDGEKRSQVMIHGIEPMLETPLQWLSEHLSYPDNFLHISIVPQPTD
UniProt Q8R4B8: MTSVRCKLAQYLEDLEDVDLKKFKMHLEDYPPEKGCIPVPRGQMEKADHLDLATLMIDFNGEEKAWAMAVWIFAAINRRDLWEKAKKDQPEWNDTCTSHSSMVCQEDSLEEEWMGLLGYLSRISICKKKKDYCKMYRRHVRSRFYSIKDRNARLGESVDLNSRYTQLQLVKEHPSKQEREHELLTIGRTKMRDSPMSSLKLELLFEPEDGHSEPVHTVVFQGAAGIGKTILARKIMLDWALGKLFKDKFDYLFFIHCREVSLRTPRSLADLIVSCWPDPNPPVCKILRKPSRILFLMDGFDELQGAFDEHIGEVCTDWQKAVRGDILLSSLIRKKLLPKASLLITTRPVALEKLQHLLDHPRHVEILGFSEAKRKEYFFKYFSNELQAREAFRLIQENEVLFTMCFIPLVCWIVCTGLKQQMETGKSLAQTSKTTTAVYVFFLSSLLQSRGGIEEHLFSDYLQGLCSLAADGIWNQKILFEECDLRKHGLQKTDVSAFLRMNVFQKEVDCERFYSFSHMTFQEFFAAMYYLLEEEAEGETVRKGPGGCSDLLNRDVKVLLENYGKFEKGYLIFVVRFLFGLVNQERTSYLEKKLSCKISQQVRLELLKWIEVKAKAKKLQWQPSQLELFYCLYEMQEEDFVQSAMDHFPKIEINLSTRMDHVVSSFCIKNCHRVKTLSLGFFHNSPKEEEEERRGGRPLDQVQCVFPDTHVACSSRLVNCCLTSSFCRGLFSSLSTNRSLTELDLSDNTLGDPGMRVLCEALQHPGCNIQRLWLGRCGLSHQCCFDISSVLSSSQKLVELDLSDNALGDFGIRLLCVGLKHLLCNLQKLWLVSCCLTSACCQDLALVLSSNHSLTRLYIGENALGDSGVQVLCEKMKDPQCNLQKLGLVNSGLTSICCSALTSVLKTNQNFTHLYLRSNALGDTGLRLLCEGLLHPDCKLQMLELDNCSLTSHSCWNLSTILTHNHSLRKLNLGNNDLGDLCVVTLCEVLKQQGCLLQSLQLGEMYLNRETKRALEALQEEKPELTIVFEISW

Target: Atg5 (mouse (endogenous in BV2)) (UniProt Q99J83)
Assay: co-IP; BV2 cell supernatants incubated with Atg5 primary antibody overnight at 4 °C, then protein A/G PLUS-agarose 6-8 h at 4 °C, three washes; IgG as control; western blot of TRIM45 or NLRP3; for NLRP3: control, LPS + ATP and LPS + ATP + HA-TRIM45 (48 h transfection) groups

| Molecule | binding |
| --- | --- |
| NLRP3 (from UniProt Q8R4B8 1-1033) | binds |
| TRIM45 (protein, UniProt Q6PFY8 1-580) MSEIRKPLLGFVHKLQDANASGSSGKTHCPTCLRLFKVPRLLPCLHTVCTTCLEKLDPFSVVDIRGGDSDTSSEGSVFQDPELCSLQPQIGILCPVCDAQVDLPLGGVKALTVDHLAMNDVLLENLRGEGQGLVCDLCSDREVEKRCQTCKANLCHFCCQAHRRQKKTTYHTMVDLKDLKGYSQVGKPILCPSHPAEELRLFCELCDRPVCRDCVVGEHREHPYDFTSNVIHKHGDSVRELLRDTQPHVEALEDALAQIKSVNNALQERVEAVAADVRTFSEGYIKAIEEHRDKLLQQLDDIRIQRETALQLQKAQLEQLLADMRTGVEFTEHLLTSGSDLEILITKGVVVERLRKLNKVEYSARPGVNHKICFSPQEKAGQCQGYEVYGAINTQEVDPAQCVLQGEDLHRAREKQTASFTLFCKDASGQSMGRGGDNVHVEVVPKDKKDSPIRTVVQDNKDGSYRVSYTPKEPGIYTVWVCIREQHVQGSPFNVTVRRKHRPHPGVFHCCTFCSSGGQKAARCACGGTMPGGYLGCGHGHKGHPGRPHWSCCGKFIEKSECSFTSGQGAPRSLLRTVAL | binds |
